Among the data in the supplement of paper PMC6411743 are NP40-soluble protein abundance values, retold here.

Each structure is given as a SMILES string. ± gives the standard deviation of the averaged measurements. This is one part of the list.

The test has as its target T1, CENPB (UniProt P07199).
T1 sequence (whole entry): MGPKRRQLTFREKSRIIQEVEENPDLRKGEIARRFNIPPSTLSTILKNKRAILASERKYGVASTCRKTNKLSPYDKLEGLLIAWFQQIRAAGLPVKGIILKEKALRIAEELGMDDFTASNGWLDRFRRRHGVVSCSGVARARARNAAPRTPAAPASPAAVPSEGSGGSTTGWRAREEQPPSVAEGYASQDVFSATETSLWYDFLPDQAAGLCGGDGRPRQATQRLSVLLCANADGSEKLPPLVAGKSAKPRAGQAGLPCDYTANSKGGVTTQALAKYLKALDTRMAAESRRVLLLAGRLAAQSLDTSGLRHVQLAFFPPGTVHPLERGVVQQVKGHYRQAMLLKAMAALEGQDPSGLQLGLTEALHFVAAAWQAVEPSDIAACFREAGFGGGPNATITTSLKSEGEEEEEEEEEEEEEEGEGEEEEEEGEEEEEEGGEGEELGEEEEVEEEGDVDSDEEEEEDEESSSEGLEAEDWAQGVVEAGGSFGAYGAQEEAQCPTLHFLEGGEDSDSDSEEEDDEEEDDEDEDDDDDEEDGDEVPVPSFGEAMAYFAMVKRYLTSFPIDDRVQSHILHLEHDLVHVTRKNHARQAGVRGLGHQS
The test is described as follows: NP40-soluble protein abundance relative to vehicle (solubility fold change) (ratio); higher = more soluble protein in presence of GTP. As for the experimental part:
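Solubility proteome profiling in Jurkat crude lysate. Lysate was treated with Mg-GTP (0.1-10 mM) for 10 min at room temperature and 3 min at 37 °C, then solubilised with 0.8% NP40 and benzonase, followed by ultracentrifugation. Proteins were quantified by TMT10 LC-MS/MS; the value is the NP40-soluble abundance relative to the NP40-processed vehicle, from 3 independent experiments.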

On to `Nc1nc2c(ncn2[C@@H]2O[C@H](COP(=O)(O)OP(=O)(O)OP(=O)(O)O)[C@@H](O)[C@H]2O)c(=O)[nH]1` [guanosine triphosphate], for which the NP40-soluble protein abundance by setting is: (concentration: 0.1mM) 1.11 ± 0.036; (concentration: 0.5mM) 0.995 ± 0.021; (concentration: 1mM) 1.05 ± 0.027; (concentration: 2mM) 1.11 ± 0.089; (concentration: 4mM) 0.979 ± 0.022; (concentration: 6mM) 0.957 ± 0.074. In addition, the NP40-soluble protein abundance by setting is: (concentration: 8mM) 1.04 ± 0.061; (concentration: 10mM) 1.04 ± 0.05.
